About 7,500 (2.1%) of roughly 360,000 compounds were called active. The inconclusive results got no clear call from the source; some entries with a clear call stand among them for comparison. Calls come from the whole dose curve; as a rule, active = well fitted inhibition curve with a large enough effect; inconclusive = small, poorly fitted or top-dose-only effect, or effect the other way; inactive = flat fitted curve, though single readings scatter. A potency beside an inconclusive call is a rough fit, not a confirmed value.
Experiment: Nrf2 qHTS screen for inhibitors; note: nearly all actives have a fitted effect of over 60% in size
Details: A549 ARE-Fluc reporter, luciferase luminescence, 18-24 h; series mostly up to 46 µM
Outline: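 Two sequential reads on A549 ARE_Fluc cells exposed to compound for 18-24 h: a CellTiter-Fluor fluorescence read for viability, then a luciferase luminescence read for Nrf2/ARE activity.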
Potency is the fitted concentration of half-maximal effect.

| SMILES | Potency |
| --- | --- |
| CCOc1ccc(S(=O)(=O)N2CCCC(C(=O)NCc3ccccn3)C2)cc1Cl (stereo not drawn) | inconclusive: 14.6 µM [falling, partial curve, poor fit] |
| Fc1ccccc1-c1ccc(-c2nc3ccc(Cl)cn3c2Nc2ccc(Cl)cc2)o1 | inconclusive: 5.8 µM [activator, partial curve, poor fit] |
| CC(C)COc1ccc(C(=O)Nc2nnc(S(=O)(=O)N(C)Cc3ccco3)s2)cc1 | inconclusive: 2.06 µM [activator, partial curve, poor fit] |
| COc1cccc(CNC(=O)c2cc3c(=O)n(Cc4cccnc4)ccc3nc2C)c1 | inconclusive: 29.1 µM [falling, single point] |
| Cc1cccc(OCC(=O)N2CCN(c3nnc(-c4ccccc4)c4ccccc34)CC2)c1 | inconclusive: 20.6 µM [falling, single point] |
| CCc1cc(=O)oc2c(C)c(OCC(=O)N3CCCc4ccccc43)ccc12 | active: 11.6 µM |
| COc1ccccc1N(CC(=O)N/N=C/c1c(O)ccc2ccccc12)S(C)(=O)=O | inactive |
| COc1ccc(C(=O)OCC(=O)c2ccc(C)c(S(=O)(=O)N3CCOCC3)c2)cc1OC | active: 20.6 µM |
| Cc1nccc(-c2cccc(NC(=O)c3ccccc3Cl)c2)n1 | inconclusive: 2.31 µM [falling, partial curve, poor fit] |
| O=C(NCc1ccco1)c1cc2cc3ccc(Cl)cc3nc2o1 | active: 23.1 µM |
| O=C(c1cc(Cl)ccc1Cl)N1CCN(c2ccccn2)CC1 | inactive |
| O=C(OCc1ccccc1)c1cccnc1Cl | inconclusive: 0.164 µM [activator, full curve] |
| Fc1ccc2[nH]c3c(N4CCN(c5ccccc5)CC4)ncnc3c2c1 | active: 13 µM |
| O=c1[nH]c(C2CCN(S(=O)(=O)Cc3ccccc3)CC2)nc2c1nnn2Cc1ccccc1Cl | inconclusive: 23.1 µM [falling, partial curve] |
| Cc1ccc(Nc2c(-c3cccnc3)nc3ccc(Cl)cn23)cc1 | inconclusive: 20.6 µM [falling, single point] |
| N#CC(c1ccc(Cl)cc1)c1ccc2c(C(F)(F)F)cc(C(F)(F)F)nc2n1 (stereo not drawn) | active: 1.46 µM |
| O=C(Nc1ccc2c(c1)OCCO2)N1CCN(c2ccccc2)CC1 | inactive |
| CC(C)n1cnc2c(Nc3cccc(Cl)c3)nc(NCCCO)nc21 | inconclusive: 16.4 µM [falling, single point] |
| O=C(C[C@H]1C[C@H](C(=O)N2CCOCC2)[C@@]2(CCC3CCCC3)c3[nH]c4cc(-c5ccco5)ccc4c3CCN2C1=O)NCc1cccc(C(F)(F)F)c1 | inconclusive: 23.1 µM [falling, single point] |
| CCC(=O)NC(=S)Nc1ccc(OC)cc1OC | inconclusive: 32.6 µM [activator, single point] |
| O=[N+]([O-])c1ccc(-c2nn(-c3ccccc3)cc2/C=N/n2c(-c3ccncc3)n[nH]c2=S)cc1 | inconclusive: 16.4 µM [activator, partial curve, poor fit] |
| COc1ccc(NS(=O)(=O)c2ccc3nc(COc4ccc(Cl)c(C)c4)[nH]c3c2)cc1 | inconclusive: 32.6 µM [falling, single point] |
| COc1ccc(Cl)cc1Nc1nc(-c2sc(NC(=O)CC(C)C)nc2C)cs1 | inconclusive: 20.6 µM [falling, single point] |

Molecules above with two or more sulfur atoms:

| SMILES | Potency |
| --- | --- |
| CC(C)COc1ccc(C(=O)Nc2nnc(S(=O)(=O)N(C)Cc3ccco3)s2)cc1 | inconclusive: 2.06 µM [activator, partial curve, poor fit] |
| COc1ccc(Cl)cc1Nc1nc(-c2sc(NC(=O)CC(C)C)nc2C)cs1 | inconclusive: 20.6 µM [falling, single point] |

(more compounds)

| SMILES | Potency |
| --- | --- |
| COc1cccc(Nc2nc3ccccc3nc2NS(=O)(=O)c2cccs2)c1 | inconclusive: 18.4 µM [falling, partial curve, poor fit] |
| Nc1c(C(=O)Nc2ccccc2)nnn1-c1ccc2c(c1)OCCO2 | inconclusive: 0.58 µM [activator, partial curve] |
| CCn1c(=O)cc(OCC(=O)NCCc2ccc(OC)c(OC)c2)c2ccccc21 | inconclusive: 8.2 µM [falling, partial curve, poor fit] |
| O=C(CNC(=O)c1ccc2c(c1)OCCO2)N/N=C/c1cccc(Br)c1 | inconclusive: 29.1 µM [activator, single point] |
| Cc1c(C(=O)N2CCC(C)CC2)oc2ccc3c(c12)C(O)CC1(CCCCC1)O3 (stereo not drawn) | inconclusive: 14.6 µM [falling, partial curve, poor fit] |
| CN(Cc1nccs1)c1ncnc2ccc(-c3ccc4c(c3)OCO4)cc12 | inactive |
| COc1ccc(C(=O)N/N=C(\C)CC(=O)Nc2cccc(C(F)(F)F)c2)cc1 | inconclusive: 29.1 µM [falling, single point] |
| COc1ccc2cc(CCNS(=O)(=O)c3ccc(C)cc3)c(=O)[nH]c2c1 | inactive |
| O=C(Nc1ccc(S(=O)(=O)N2CCCC2)cc1)c1ccc(CN2CCOCC2)cc1 | active: 4.11 µM |
| OC(COc1cccc2ccccc12)CN1CCN(c2ccccc2)CC1 (stereo not drawn) | inconclusive: 14.6 µM [falling, partial curve, poor fit] |
| COc1ccc2c(c1)C(CC(=O)NN)CCC2 (stereo not drawn) | inconclusive: 23.1 µM [activator, single point] |
| CCC(C)NC(=O)Cn1c(=O)n(-c2ccc(OC)c(OC)c2)c(=O)c2ccccc21 (stereo not drawn) | inactive |
| O=C(c1ccc(Cl)cc1)C1CCN(C(=O)NC2CCCCC2)CC1 | active: 18.4 µM |
| Cc1cc(C)cc(NC(=O)N2CCC(C(=O)c3ccc(F)cc3)CC2)c1 | active: 14.6 µM |
| O=C(O)/C=C/C(=O)N(Cc1ccccc1)Cc1ccco1 | inconclusive: 6.51 µM [activator, partial curve, poor fit] |
| CCOc1ccc2noc3c2c1C(=O)c1ccccc1-3 | inactive |
| Cc1ccc2oc(-c3cc(NC(=O)CC(C)C)ccc3Cl)nc2c1 | inconclusive: 13 µM [falling, partial curve, poor fit] |
| O=C1CN(C(=O)COC(=O)CCCOc2ccccc2)c2ccccc2N1 | inconclusive: 32.6 µM [activator, partial curve, poor fit] |
| COc1ccc2[nH]c(=O)c(-c3nnn(-c4ccc(F)cc4)n3)cc2c1 | inactive |
| Cc1ccc(CCNC(=O)c2cc(S(=O)(=O)N3CCCCC3)c[nH]2)cc1 | inconclusive: 32.6 µM [falling, partial curve, poor fit] |
| NS(=O)(=O)c1ccc(CCNC(=O)c2cc(-c3ccc(Br)cc3)nc3ccccc23)cc1 | inconclusive: 29.1 µM [falling, single point] |
| Cc1ccc2c(c1)Cc1c(nc(-c3ccc(F)cc3)nc1SCC(=O)N1CCCCC1)O2 | inactive |
| O=C(c1ccc(F)cc1)c1ccc(N2CCCCC2)cc1 | inconclusive: 4.61 µM [activator, full curve] |

In the list so far, 2 contain bromine:

| SMILES | Potency |
| --- | --- |
| O=C(CNC(=O)c1ccc2c(c1)OCCO2)N/N=C/c1cccc(Br)c1 | inconclusive: 29.1 µM [activator, single point] |
| NS(=O)(=O)c1ccc(CCNC(=O)c2cc(-c3ccc(Br)cc3)nc3ccccc23)cc1 | inconclusive: 29.1 µM [falling, single point] |

Continuation.

| SMILES | Potency |
| --- | --- |
| CC1(C)CC(N=c2cc(-c3ccccc3)oc3ccc(Cl)cc23)CC(C)(C)N1 | inactive |
| C#CCOc1ccc(Cl)cc1/C=C1/C(=O)ON=C1C | inconclusive: 6.51 µM [activator, single point] |
| CN1C(=O)/C(=C\c2cccc(OCc3ccccc3)c2)SC1=S | inactive |
| CCc1noc(C)c1C(=O)Nc1ccc(S(=O)(=O)N2CCCC(C)C2)cc1 (stereo not drawn) | inconclusive: 29.1 µM [falling, single point] |
| COc1cc(C(=O)Oc2c(CN3CCOCC3)cc(Cl)c3cccnc23)cc(OC)c1OC | inactive |
| COc1ccc(C(=O)c2c3ccc([N+](=O)[O-])cc3[n+]([O-])n2CCCN)cc1 | inconclusive: 29.1 µM [activator, single point] |
| C/C(=N/NC(=O)c1cccs1)c1ccc(NC(=O)COc2ccc(Cl)cc2Cl)cc1 | inconclusive: 32.6 µM [falling, partial curve, poor fit] |
| CC(=O)NC1(c2nnnn2CCOC(=O)Nc2ccc(Cl)cc2)CCCC1 | inconclusive: 0.651 µM [falling, partial curve, poor fit] |
| Cc1ccc(NC(=S)Nc2ccccn2)c(C)c1 | inconclusive: 29.1 µM [falling, single point] |
| N#CN=C(N)c1ccccc1 | inconclusive: 2.59 µM [activator, partial curve, poor fit] |
| Cc1ccc(C(=O)NCc2ccc3c(c2)OCO3)cc1C | inconclusive: 4.61 µM [activator, full curve] |
| CCn1c(=O)c(C(=O)Nc2nc3ccccc3[nH]2)c(O)c2ccccc21 | active: 16.4 µM |
| CN1CCN(c2cc(-c3ccccc3)nc3cc(-c4ccc(F)cc4)nn23)CC1 | inactive |
| Cc1ccccc1Cn1c(=O)c2c(nc3n2CCCN3Cc2ccccc2)n(C)c1=O | inconclusive: 13 µM [falling, single point] |
| Cc1cc(C)n(CCC(=O)N/N=C/c2c(O)ccc3ccccc23)n1 | inactive |
| COc1cccc(NC(=O)[C@H](Cc2c[nH]c3ccccc23)NC(=O)[C@@H]2Cc3ccccc3CN2)c1 | inconclusive: 10.3 µM [activator, partial curve] |
| CC(=O)Nc1ccccc1OCc1nnc(-c2ccc(Cl)cc2)o1 | inconclusive: 18.4 µM [activator, single point] |
| COC(=O)c1ccc(-n2ccnc2)cc1 | inactive |
| COc1ccc(CN(C)C(=O)COC(=O)c2c(-c3ccccc3Cl)noc2C)cc1 | inconclusive: 23.1 µM [falling, partial curve, poor fit] |
| O=S(=O)(c1ccc(-c2csc(=Nc3ccc(F)cc3)n2CCCCCCO)cc1)N1CCCC1 | active: 23.1 µM |
| O=C(CCl)N1N=C(c2cccs2)CC1c1ccco1 (stereo not drawn) | inconclusive: 32.6 µM [falling, partial curve, poor fit] |
| COc1cccc([C@@H]2Oc3ccc(Br)cc3C(=O)[C@H]2OC(=O)NC2CCCC2)c1 | inconclusive: 29.1 µM [falling, single point] |
